No constants are given. Whether binding was seen depends on the method and setting. Binding seen in cells or lysates may run through a third protein. Some binding calls cover weakened binding; strength is not graded here. Each block holds one molecule with its values, some of them ahead of it.
Molecular target: NEDD4, endogenous in germline stem cells (mouse (endogenous in GSCs)) (UniProt P46935)
Assay: co-IP; IP with an anti-NEDD4 antibody from lysates of GSCs incubated at 33 °C or 42 °C for 20 min, endogenous proteins; western blot

Chains of the proteins cited; added tags and fusions are not shown.
UniProt P46935: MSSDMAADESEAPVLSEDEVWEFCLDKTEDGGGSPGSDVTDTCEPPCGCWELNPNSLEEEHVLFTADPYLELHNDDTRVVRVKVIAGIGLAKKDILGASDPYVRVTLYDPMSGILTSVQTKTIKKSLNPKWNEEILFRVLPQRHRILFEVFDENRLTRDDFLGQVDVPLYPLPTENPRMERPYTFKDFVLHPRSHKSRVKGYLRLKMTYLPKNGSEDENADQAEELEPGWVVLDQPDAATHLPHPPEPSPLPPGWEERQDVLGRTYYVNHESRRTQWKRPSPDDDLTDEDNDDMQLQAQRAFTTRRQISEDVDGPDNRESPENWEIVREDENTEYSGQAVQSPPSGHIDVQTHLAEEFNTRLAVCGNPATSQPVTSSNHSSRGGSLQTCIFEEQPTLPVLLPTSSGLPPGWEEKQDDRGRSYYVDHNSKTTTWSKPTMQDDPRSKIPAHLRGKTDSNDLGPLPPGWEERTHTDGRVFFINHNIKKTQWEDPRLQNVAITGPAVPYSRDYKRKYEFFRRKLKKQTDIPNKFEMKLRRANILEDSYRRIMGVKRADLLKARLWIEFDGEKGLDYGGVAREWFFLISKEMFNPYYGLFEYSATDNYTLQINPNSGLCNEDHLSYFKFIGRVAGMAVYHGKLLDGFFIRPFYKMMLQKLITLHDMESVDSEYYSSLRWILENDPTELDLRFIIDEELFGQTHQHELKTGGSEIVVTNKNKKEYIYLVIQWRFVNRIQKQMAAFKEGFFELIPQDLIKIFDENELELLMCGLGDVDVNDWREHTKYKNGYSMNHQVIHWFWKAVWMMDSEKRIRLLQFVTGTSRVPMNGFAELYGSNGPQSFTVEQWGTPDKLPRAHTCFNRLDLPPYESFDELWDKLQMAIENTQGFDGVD
UniProt P29341: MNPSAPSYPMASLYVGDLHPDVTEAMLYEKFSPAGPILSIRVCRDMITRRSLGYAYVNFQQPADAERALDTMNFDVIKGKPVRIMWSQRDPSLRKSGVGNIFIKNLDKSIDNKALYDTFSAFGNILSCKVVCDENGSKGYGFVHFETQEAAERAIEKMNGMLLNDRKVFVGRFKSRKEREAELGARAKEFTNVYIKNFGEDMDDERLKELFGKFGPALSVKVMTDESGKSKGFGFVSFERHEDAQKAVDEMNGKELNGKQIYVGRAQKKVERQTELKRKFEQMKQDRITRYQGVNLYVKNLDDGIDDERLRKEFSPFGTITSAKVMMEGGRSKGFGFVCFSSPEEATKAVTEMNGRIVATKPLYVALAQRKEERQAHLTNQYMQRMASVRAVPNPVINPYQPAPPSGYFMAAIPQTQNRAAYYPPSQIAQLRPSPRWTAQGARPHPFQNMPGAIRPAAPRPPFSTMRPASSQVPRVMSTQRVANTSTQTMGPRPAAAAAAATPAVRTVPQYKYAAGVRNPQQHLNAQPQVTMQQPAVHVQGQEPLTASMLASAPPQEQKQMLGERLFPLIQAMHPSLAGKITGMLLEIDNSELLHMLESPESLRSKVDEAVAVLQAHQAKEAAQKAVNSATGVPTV

binding: binds
Molecule: PABP1, endogenous in germline stem cells (from UniProt P29341 1-636)

binding: binds
B1: DAZL, endogenous in germline stem cells (protein, UniProt Q64368 1-298)
chain: MSATTSEAPNSAVSREASTQSSSATTSQGYVLPEGKIMPNTVFVGGIDVRMDETEIRSFFARYGSVKEVKIITDRTGVSKGYGFVSFYNDVDVQKIVESQINFHGKKLKLGPAIRKQNLCTYHVQPRPLIFNPPPPPQFQSVWSSPNAETYMQPPTMMNPITQYVQAYPPYPSSPVQVITGYQLPVYNYQMPPQWPAGEQRSYVIPPAYTTVNYHCSEVDPGADILPNECSVHDAAPASGNGPQKKSVDRSIQTVVSCLFNPENRLRNSLVTQDDYFKDKRVHHFRRSRAVLKSDHLC

binding: no binding
B2: TIAR, endogenous in germline stem cells (protein, UniProt P70318 1-392)
chain: MMEDDGQPRTLYVGNLSRDVTEVLILQLFSQIGPCKSCKMITEQPDSRRVNSSVGFSVLQHTSNDPYCFVEFYEHRDAAAALAAMNGRKILGKEVKVNWATTPSSQKKDTSNHFHVFVGDLSPEITTEDIKSAFAPFGKISDARVVKDMATGKSKGYGFVSFYNKLDAENAIVHMGGQWLGGRQIRTNWATRKPPAPKSTQETNTKQLRFEDVVNQSSPKNCTVYCGGIASGLTDQLMRQTFSPFGQIMEIRVFPEKGYSFVRFSTHESAAHAIVSVNGTTIEGHVVKCYWGKESPDMTKNFQQVDYSQWGQWSQVYGNPQQYGQYMANGWQVPPYGVYGQPWNQQGFGVDQSPSAAWMGGFGAQPPQGQAPPPVIPPPNQAGYGMASFPTQ
